At least one peptide structure holds a part that was inferred or is arguable (an end, a ring closure or a residue).
Columns and labels:
[1] = tested on: chronic and acute ear infections; experiment: Treatment of ear infections with conventional therapy; format: in vivo; details: IM or intranasal accompanying conventional therapy (antibiotics)
[2] = tested on: flu; experiment: Combination with anti-flu vaccination; format: in vivo, human; details: 50 ug single dose for 3 consecutive days with anti-flu vaccination; versus vaccination without the peptide
[3] = tested on: pyoderma, including furunculitis, cellulitis, and folliculitis; experiment: Treatment of patients with pyoderma; format: in vivo, human; details: IM or intranasally for 5 consecutive days; 1 μg/kg body weight
[4] = tested on: hemorrhagic Dengue Fever; experiment: Patients with hemorrhagic Dengue Fever; format: in vivo, human; details: IM single daily 100 ug for 5 days with conventional therapy
[5] = tested on: pelvic inflammatory diseases, cervicitis, vaginitis and various tubo-ovarian and adnexal abscesses; experiment: Treatment of female patients with gynecological inflammatory disorders; format: in vivo, human; details: IM, intranasally 100 μg 5 consecutive days or 50 μg intralymphatically 5 days, with conventional therapy
[6] = tested on: skin grafting; experiment: Patients subjected to skin grafting; format: in vivo, human; details: IM or intranasally single daily 50-100 μg for 5 days
[7] = tested on: Shigella dysentery; experiment: Patients infected with Shigella dysentery; format: in vivo, human; details: IM single doses of 100 ug for 10 consecutive days
[8] = tested on: acute respiratory disease, including upper airway diseases, such as colds; experiment: Treatment of patients with acute respiratory disease; format: in vivo, human; details: IM or intranasally 100 μg 3-7 days
[9] = tested on: pyelonephritis; experiment: Patients with pyelonephritis; format: in vivo, human; details: single daily 100 ug for 5-10 days with conventional therapy

With CC[C@H](C)[C@H](N)C(=O)N[C@@H](Cc1c[nH]c2ccccc12)C(=O)O [Ile-Trp, L-Ile-L-Trp] the “healing of ear infections” value [1] was “accelerated healing of chronic and acute ear infections”, the sickness rate [2] was “significant decrease of sickness rate for a period of 12 months” and the immunological indices [3] was “normalized”. For the same compound, the “skin manifestations and relapses” value [3] was “disappearance of skin manifestations and relapses are prevented”, the clinical outcome [4] was “reduction in fever, reduction of toxic symptoms, significant decrease in hepato-lineal syndrome” and the clinical effect [5] was “arresting of pain syndrome, the control of body temperature, e.g. reduction of fever, the decrease of duration of conventional treatment”. For the same compound, the “infectious complications and graft rejection” value [6] was “prevents the arising of infections complications and graft rejection”, the clinical outcome [7] was “normalization of fever, the reduction of toxemia, and the normalization gastrointestinal disorders and symptoms” and the “course of the viral infection” value [8] was “milder course of the viral infection”. The “secondary infectious complications and duration of treatment” value [8] was “Secondary infectious complications are diminished, and the duration of the treatment is also diminished” and the clinical outcome [9] was “reduction of fever, the normalization of urine analysis, and the improvement and resolution of the infection”.

— patent US5789384A, “Pharmaceutical dipeptide compositions and methods of use thereof” (priority 1995, dated 1998)
